These results are taken from article PMC4568978.

The chains behind the UniProt entries cited, without tags or fusion partners. Residues count along the entry.
UniProt Q9JLF7, residues 27-859: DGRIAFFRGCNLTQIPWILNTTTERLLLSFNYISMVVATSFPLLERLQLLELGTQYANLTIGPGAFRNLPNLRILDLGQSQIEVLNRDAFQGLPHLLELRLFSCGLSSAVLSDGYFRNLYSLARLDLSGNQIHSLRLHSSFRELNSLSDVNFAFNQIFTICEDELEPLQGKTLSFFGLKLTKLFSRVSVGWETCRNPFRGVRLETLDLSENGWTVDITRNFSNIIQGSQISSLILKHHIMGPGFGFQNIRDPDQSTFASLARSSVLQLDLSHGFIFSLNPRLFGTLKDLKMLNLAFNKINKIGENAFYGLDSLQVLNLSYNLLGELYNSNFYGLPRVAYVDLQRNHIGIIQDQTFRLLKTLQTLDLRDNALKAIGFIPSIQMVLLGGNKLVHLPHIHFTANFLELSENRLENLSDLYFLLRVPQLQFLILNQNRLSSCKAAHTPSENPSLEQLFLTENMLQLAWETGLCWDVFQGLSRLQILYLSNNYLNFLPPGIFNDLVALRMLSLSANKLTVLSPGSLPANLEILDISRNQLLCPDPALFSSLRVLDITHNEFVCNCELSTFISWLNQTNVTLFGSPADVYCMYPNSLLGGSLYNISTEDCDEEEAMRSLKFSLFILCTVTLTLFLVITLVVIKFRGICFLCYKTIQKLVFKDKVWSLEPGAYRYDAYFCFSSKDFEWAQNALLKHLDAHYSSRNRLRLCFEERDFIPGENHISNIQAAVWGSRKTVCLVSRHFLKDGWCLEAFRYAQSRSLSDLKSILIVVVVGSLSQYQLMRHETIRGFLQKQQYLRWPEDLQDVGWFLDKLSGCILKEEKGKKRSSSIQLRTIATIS
UniProt P22366: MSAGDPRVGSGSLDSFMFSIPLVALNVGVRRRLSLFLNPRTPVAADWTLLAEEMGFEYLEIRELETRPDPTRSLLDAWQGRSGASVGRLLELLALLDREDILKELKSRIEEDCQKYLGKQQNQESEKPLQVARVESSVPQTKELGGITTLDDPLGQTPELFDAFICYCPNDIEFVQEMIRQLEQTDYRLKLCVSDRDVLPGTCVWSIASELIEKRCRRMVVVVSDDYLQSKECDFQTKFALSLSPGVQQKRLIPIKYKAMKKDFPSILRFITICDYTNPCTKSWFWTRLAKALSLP

Results are given in words; binding and its absence hold for the method and conditions named. In cells and extracts the contact can be indirect. Some results given as binding are weak or reduced against the parent protein; the word gives no strength.

Assay [1] deals with Toll-like receptor 5 (mouse (endogenous in peritoneal macrophages)) (UniProt Q9JLF7). Put plainly: co-IP; lysates of mouse peritoneal macrophages (aged; WT, Cav1-/- and Myd88-/-), with or without Vv-FlaB stimulation for 12 h; incubated with protein G-Sepharose beads and anti-Cav1, anti-TLR5 or anti-MyD88 antibodies; Western blotting.
In assay [2] the target is T1, caveolin-1 (mouse (endogenous in peritoneal macrophages)) (UniProt P49817).
T1 sequence: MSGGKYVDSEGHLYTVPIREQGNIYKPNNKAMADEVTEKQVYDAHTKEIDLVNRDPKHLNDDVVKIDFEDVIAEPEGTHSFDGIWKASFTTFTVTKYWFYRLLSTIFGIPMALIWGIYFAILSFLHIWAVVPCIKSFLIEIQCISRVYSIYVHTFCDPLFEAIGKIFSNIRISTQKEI
The description is as above.

Regarding MyD88 (from UniProt P22366 1-296), the binding result in assay [1] is reported as “binds”.

Consider “Toll-like receptor 5 (from UniProt Q9JLF7 27-859)”, for which, in assay [2], the binding entry is “binds”.
